pIC50, pKd: −log10 of the molar value. For part of these data: No signal at the amounts used counts as a negative. For part of these data: Construct, isoform or probe ends are uncertain for at least one entry.
What was measured:
[1] = test system: Complement component 3 (C3) (Homo sapiens); assay: inhibition of the protein; details: P = NapdU (all U), 3'-3' idT, 20 nM C3, GVB++, 37 C, single-stranded DNA
[2] = test system: Complement component 3 (C3) (Homo sapiens); assay: filter binding; details: 3'-3' idT, purified recombinant protein, single-stranded DNA; for pKd: all U = NapdU, NB up to 100 nM C3; for binding result: all U in listing = NapdU, NB, no binding
[3] = test system: Complement component 5 (C5) (Homo sapiens); assay: filter binding; details: all U = NapdU, 3'-3' idT, no discernible binding up to 1e-7 M C5, single-stranded DNA

Chains of the proteins cited; added tags and fusions are not shown. Chains listed by the source or under a name are the forms on record and can include a tag or linker.
Complement component 5 (C5) (Homo sapiens), one chain, as listed by the source, chain 1 of 2: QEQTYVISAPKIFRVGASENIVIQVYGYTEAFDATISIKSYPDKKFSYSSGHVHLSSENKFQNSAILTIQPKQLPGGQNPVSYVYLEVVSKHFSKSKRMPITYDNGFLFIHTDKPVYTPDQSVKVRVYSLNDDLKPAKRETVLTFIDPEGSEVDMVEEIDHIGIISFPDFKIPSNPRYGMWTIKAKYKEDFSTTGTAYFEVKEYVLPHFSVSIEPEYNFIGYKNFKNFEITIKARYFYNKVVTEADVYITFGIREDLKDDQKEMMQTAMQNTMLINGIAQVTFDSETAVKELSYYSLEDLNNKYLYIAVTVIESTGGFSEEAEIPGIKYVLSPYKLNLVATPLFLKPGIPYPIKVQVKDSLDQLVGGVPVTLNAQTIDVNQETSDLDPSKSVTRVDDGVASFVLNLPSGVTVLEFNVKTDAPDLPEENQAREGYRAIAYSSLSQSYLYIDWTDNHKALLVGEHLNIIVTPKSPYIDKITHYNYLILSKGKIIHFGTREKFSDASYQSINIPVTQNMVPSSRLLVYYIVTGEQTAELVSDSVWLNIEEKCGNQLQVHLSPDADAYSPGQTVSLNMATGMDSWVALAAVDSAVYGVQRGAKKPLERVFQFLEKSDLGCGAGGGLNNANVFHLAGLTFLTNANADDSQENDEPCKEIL
Complement component 3 (C3) (Homo sapiens), one chain, as listed by the source, chain 1 of 2: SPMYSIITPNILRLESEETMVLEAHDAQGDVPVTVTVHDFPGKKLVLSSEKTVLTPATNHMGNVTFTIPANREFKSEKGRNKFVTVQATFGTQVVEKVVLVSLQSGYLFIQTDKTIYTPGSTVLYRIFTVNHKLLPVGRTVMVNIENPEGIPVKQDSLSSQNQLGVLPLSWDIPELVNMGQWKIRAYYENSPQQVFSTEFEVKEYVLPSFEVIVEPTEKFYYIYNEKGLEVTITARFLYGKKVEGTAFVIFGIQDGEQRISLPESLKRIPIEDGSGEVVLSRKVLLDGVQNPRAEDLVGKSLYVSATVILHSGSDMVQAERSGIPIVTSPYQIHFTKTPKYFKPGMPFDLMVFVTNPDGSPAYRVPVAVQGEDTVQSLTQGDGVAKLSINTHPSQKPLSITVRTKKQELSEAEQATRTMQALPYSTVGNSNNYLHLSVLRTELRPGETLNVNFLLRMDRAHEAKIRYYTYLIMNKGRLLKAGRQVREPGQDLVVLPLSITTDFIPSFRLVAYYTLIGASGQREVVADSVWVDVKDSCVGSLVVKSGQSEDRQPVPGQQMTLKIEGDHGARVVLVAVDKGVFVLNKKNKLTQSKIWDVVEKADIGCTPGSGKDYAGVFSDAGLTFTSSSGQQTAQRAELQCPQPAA
Complement component 5 (C5) (Homo sapiens), one chain, as listed by the source, chain 2 of 2: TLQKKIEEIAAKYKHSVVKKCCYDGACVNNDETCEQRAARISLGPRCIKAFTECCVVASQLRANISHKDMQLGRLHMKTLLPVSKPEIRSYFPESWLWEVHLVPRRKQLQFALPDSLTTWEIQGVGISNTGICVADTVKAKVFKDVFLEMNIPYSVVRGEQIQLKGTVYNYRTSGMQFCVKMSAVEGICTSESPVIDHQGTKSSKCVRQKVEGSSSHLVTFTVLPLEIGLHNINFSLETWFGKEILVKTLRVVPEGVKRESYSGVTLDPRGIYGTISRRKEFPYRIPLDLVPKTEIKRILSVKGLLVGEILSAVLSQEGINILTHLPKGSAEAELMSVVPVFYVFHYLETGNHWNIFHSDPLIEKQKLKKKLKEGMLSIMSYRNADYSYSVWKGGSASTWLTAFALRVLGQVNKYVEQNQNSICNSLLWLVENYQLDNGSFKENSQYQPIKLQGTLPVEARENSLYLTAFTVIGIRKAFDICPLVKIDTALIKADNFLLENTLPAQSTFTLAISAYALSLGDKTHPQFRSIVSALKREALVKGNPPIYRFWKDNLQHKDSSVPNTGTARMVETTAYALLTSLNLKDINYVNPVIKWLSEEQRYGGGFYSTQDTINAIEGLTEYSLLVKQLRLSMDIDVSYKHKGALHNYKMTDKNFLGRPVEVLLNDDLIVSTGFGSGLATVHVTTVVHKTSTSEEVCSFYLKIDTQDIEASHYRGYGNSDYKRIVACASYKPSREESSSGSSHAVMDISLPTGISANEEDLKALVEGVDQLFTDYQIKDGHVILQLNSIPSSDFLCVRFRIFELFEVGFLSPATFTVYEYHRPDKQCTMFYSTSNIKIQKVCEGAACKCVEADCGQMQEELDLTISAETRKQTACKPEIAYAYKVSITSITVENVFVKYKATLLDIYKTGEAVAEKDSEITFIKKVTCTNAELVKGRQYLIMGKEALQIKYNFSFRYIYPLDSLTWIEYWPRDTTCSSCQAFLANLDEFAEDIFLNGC
Complement component 3 (C3) (Homo sapiens), one chain, as listed by the source, chain 2 of 2: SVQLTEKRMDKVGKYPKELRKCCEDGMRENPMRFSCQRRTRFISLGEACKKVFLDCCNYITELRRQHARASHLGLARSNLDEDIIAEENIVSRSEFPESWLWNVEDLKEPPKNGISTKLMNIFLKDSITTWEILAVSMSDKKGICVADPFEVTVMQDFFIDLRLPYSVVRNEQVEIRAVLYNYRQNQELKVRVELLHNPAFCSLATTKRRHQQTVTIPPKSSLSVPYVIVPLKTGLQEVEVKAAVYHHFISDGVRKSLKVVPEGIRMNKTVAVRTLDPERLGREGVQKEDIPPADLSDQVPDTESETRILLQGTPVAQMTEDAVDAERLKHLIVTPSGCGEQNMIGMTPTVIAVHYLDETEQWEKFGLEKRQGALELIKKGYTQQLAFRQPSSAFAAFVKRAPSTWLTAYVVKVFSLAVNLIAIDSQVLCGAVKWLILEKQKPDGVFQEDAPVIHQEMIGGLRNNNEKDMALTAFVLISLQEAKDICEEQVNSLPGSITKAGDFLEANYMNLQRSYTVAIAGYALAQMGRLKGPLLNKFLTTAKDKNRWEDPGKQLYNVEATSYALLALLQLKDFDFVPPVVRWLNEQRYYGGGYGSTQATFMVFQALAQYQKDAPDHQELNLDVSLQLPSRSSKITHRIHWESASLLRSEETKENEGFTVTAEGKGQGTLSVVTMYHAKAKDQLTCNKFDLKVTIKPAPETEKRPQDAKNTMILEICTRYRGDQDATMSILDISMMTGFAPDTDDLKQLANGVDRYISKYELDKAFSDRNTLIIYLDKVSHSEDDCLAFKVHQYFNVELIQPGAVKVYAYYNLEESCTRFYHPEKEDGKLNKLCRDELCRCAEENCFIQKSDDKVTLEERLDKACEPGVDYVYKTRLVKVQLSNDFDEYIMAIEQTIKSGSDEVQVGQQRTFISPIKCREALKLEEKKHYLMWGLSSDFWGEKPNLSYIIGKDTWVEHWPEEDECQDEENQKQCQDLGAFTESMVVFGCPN

CGGUGAUCAAUAGUCGUACGUUCCG [8491-94_100] gave a pIC50 ([1]; 2'-OMe at 1,2,3,5,9,10,13,19,20,22,23,24,26,27,28, C3-spacer at 7,17,25, hemolysis, purified native …, variant of 8491-94_53) of 7.71.

In the case of “CCGGUGACUCAAUAGUCCGUACUUCCCGG [8491-94_47]”, the pKd ([2]; C3-spacer replaces G23, variant of 8491-94_26) was under 7.00.

In the case of “CCGGUGACUAAUAGUCCGUACGUUCCCGG [8491-94_37]”, the pIC50 ([1]; C3-spacer replaces C10, hemolysis, purified native protein, variant of 8491-94_26) was 7.61.

For “CAGUGACUCAAUAGUCCAUACAUUCCCA [8491-94_126]”, the pKd ([2]; 2'-OMe at 1,3,5,7,9,10,13,19,20,23-27, variant of 8491-94_53) was under 7.00.

Sequence “CCGGUGAUCAAUAGUCCGUACGUUCCCGG [8491-94_36]” has a pIC50 ([1]; C3-spacer replaces C8, hemolysis, purified native protein, variant of 8491-94_26) of 7.60.

“CGGUGACUCAAUAGUCCGUACGUUCCCG [8491-94_53]”: no binding ([3]; variant of 8491-94_3).

In the case of “CCGGUGACUCAAUAGUCCGUACGUUCCCGGUCCGAACGCG [8491-94_3]”, the pIC50 ([1]; 5 bases of each flanking primer also present (not shown), hemolysis of sheep red blood cells, C3a release in 34% serum IC50 2 uM, purified native protein) was 7.83.

“CGGUGACUCAAUAGUCCGUACGUUCCCG [8491-94_91]” gave a pKd ([2]; 2'-OMe at 1,3,5,7,10,13,19,23,24,28, variant of 8491-94_53) of under 7.00.

“ACTCCGAGUACUUCGACUCAAUAGUCCGUUACGUUUGGCCGGCAGGCGAGGA [8491-401_3]”: no binding [2].

“CCGGUGACUCAAUAGUCGUACGUUCCCGG [8491-94_43]” showed a pIC50 ([1]; C3-spacer replaces C18, hemolysis, purified native protein, variant of 8491-94_26) of 7.72.

Work on “CGGUGACUCAAUAGUCCGUACGUUCCCG [8491-94_92]” yielded a pKd ([2]; 2'-OMe at 1,3,5,7,10,13,19,23,24,25,28, variant of 8491-94_53) of under 7.00.

In the case of “CCGGUGACUCAAUAGUCCGUAGUUCCCGG [8491-94_46]”, the pKd ([2]; C3-spacer replaces C22, variant of 8491-94_26) was under 7.00.

“ACTCCCGUGACUCGAUGAGUCAUAGUCGGUUCCGUCCGAACGCGGAGGA [8491-398_3]”: no binding [2].

“CGGUGACUCAAUAGUCCGUACGUUCCCG [8491-94_97]”: no binding ([3]; 2'-OMe at 1,2,3,5,7,9,10,13,19,20,22-28, variant of 8491-94_53).

“CGGUGACUCAAUAGUCCGUACGUUCCCGG [8491-94_30]” gave a pIC50 ([1]; C3-spacer replaces C1, hemolysis, purified native protein, variant of 8491-94_26) of 7.68.

— patent publication US20170166895
